Biological target: DRD3 (Homo sapiens, UniProt P35462)
Assay: biochemical

Amino acid sequences for entries named in this document (tags omitted).
UniProt P35462, whole entry, species assumed: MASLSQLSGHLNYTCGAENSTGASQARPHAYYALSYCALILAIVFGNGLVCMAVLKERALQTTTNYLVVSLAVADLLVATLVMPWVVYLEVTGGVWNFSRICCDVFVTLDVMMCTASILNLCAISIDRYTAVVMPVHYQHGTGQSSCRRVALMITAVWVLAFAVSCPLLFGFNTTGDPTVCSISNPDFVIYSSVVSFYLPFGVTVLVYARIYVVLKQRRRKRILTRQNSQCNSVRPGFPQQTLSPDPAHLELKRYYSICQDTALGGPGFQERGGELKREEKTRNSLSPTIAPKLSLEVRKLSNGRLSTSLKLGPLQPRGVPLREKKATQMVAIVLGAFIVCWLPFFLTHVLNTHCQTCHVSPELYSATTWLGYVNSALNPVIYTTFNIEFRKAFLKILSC

CCCCCCCCCCCCCCCC[n+]1ccccc1 [Cetylpyridinium chloride]
IC50: 550 nM
